Test results published in PubChem BioAssay AID602346 (Broad Institute, 2012).
Several values for one entry are separate records, joined by “and”; a condition that tells them apart may be missing. Identical values can stand only once. The whole screen tested about 340,000 compounds, of which about 1,200 (0.35%) were called active. The shares of active, inactive and inconclusive entries below differ from those in the screen. No stated cut-off is given here; in the data, active means inhibition above about 50% (passing the limit was not always enough); inconclusive means no clear call, values can overlap the other calls; inactive means below about 31%.

assay: blockers of Vif multimerization in cells – imaging, HEK293T, single point, primary screen (AID 602346); details: Vif self-association by quenched fluorescence, 24 h, at 7.49 µM, active compounds read high

Structure (SMILES) | inhibition
O=C(Nc1ccc2c(c1)CCC2)C1CCCN(c2ncccn2)C1 (configuration not stated) | inactive: -13%
CC(C)n1cnc2c(NCc3ccccc3)cc(OCC3CCN(C)CC3)cc21 | active: 78.2%
Cc1cc(C)c2c(c1)NC(c1cc3c(cc1Br)OCO3)C1CC=CC21 (configuration not stated) | inactive: 0.265%
COc1ccccc1NC(=O)CSc1nc2c(sc3ccccc32)c(=O)n1CCN(C)C | inconclusive: 35.7%
CNC(=O)COc1ccccc1C(=O)Nc1ccc2c(c1)oc1ccccc12 | inconclusive: 18%
O=C(Nc1ccc(Cl)cn1)c1cccc2ccccc12 | inconclusive: 33.2%
O=C(COc1ccc(F)cc1Br)NCC1(N2CCCCC2)CCCCC1 | inactive: 4.77%
CCOc1ccc(OCCC(=O)OCC(=O)N2CCN(S(=O)(=O)c3ccc(Cl)cc3)CC2)cc1 | inconclusive: 35.8%
O=S(=O)(CCSc1nc2ccccc2o1)c1nc2ccccc2s1 | inconclusive: 33.7%
CC(=O)c1ccc(N2CCN(C(=O)Nc3ccc(C)cc3)CC2)cc1 | inconclusive: 31.5%
CCOC(=O)C1=C(N)N2C(=O)C(C)SC2=C(C(=O)OCC)C1c1ccc(O)cc1 (configuration not stated) | inconclusive: 30.1%
Cc1ccc(NC(=O)C2=CN3CCS(=O)(=O)N=C3C=C2)cc1 | inconclusive: 46.1%
CCCCN1CC(=O)N2[C@H](c3ccc(OC)cc3)[C@@H]3C(=O)N(CC)C(=O)[C@@H]3[C@]2(Cc2ccccc2)C1=O | inconclusive: 34.5%
COc1cccc(C=Nc2cccc3c(=O)[nH][nH]c(=O)c23)c1O | inactive: -0.602%
COc1cccc(-c2cc(=O)c3cc(NC(=O)c4ccccc4)ccc3[nH]2)c1 | active: 194%
COc1ccc(Sc2cnn(-c3ccccc3)c(=O)c2Cl)cc1 | active: 50.8%
O=C(Nc1ccc2oc(-c3ccc4ccccc4c3)nc2c1)c1cccs1 | active: 52.2%
COc1ccc(CC(=O)NC(C)c2nnc(SCc3nc4ccccc4c(=O)[nH]3)n2C)cc1 (configuration not stated) | inconclusive: 44.8%
CC(C)(C)NC(=O)C1c2ccccc2Oc2ccccc21 | inconclusive: 43%
COc1ccc(/C=C2\SC(=N)N(c3ccc(F)cc3)C2=O)cc1OC | inactive: 1.41%
O=C(CSc1nc(C2CCCCC2)nc2ccccc12)N1CCCC1 | inactive: 14%
Cc1cc(Cl)ccc1OCCCC(=O)NNC(=O)c1ccccc1O | inactive: -6.83%
Cc1nc(CC(=O)N2CCN(S(=O)(=O)c3ccccc3C#N)CC2)cs1 | inconclusive: 41.9%

Structure (SMILES) | inhibition
COc1ccc(CC2NCCC3=CC(=O)CCC32)cc1O (configuration not stated) | active: 146%
COC(=O)[C@@]1(Cc2ccc(F)cc2)[C@H]2c3cc(C(=O)N4CCCC4)n(CCCNc4ncc(C(F)(F)F)cc4Cl)c3C[C@H]2CN1C(=O)c1ccccc1 | inactive: 10.4%
O=C(/C=C/c1ccccc1)Nc1ncn[nH]1 | active: 59.4%
Clc1ccc(Nc2nc(-c3cccnc3)cs2)cc1 | inconclusive: 27.5%
O=C(Nc1nccs1)c1ccc(N2C(=O)[C@@H]3[C@H](C2=O)[C@H]2C=C[C@@H]3C2)cc1 | inconclusive: 34.9%
Cc1ccnc(N/C=C(\C#N)c2nc(-c3cccc(Br)c3)cs2)c1 | active: 91.1%
NS(=O)(=O)c1ccc(CNC(=O)/C=C/c2cccc(Cl)c2)cc1 | inactive: -2.19%
CCSc1nnnn1-c1ccccc1 | inconclusive: 42.3%
C#CC[N+](CC)(CC)CC#Cc1cccc(Cl)c1 | inconclusive: 44%
CNCCCNC(=O)c1ccc(/C=N/O)nc1 | inactive: -4.49%
CCc1sc(NC(=O)c2cc3ccccc3oc2=O)nc1-c1cccs1 | active: 55.2%
Cc1ccc(NC(=S)N(CCN(C)C)Cc2cc3cc(C)cc(C)c3[nH]c2=O)cc1 | inconclusive: 48.2%
CCCSc1cc(N2CCOCC2)nc(-c2ccccc2Cl)n1 | inconclusive: 32.9%
Cc1ccc2c(c1)S(=O)(=O)c1ccc3ccccc3c1N2 | inconclusive: 29.4%
Cc1ccc(NC(=O)COC(=O)Cc2c[nH]c3ccccc23)cc1C | inconclusive: 27.9%
COc1ccc(N2CCN(C(=O)CSc3ncnc4c3cnn4-c3ccc(OC)cc3)CC2)cc1 | inconclusive: 25.9%
COc1ccc(C(CCN2CCN(c3ccccc3)CC2)c2c(O)cc(OC)cc2OC)cc1 (configuration not stated) | inactive: -3.21%
CCOC(=O)c1cc(-c2ccccc2)sc1NC(=O)COC(=O)c1cccc(S(N)(=O)=O)c1 | active: 55.2%
COc1cccc(/C=N/n2c(-c3cc(C)[nH]n3)n[nH]c2=S)c1 | inactive: -0.12%
COc1ccccc1-c1cc(C(F)(F)F)nc(S(=O)(=O)CCCC(=O)Nc2cc(C)on2)n1 | active: 60.2%
FC(F)(F)c1nc2ccccc2nc1N/N=C\c1ccccc1 | inconclusive: 22.1%
CS(=O)(=O)c1ccccc1-c1nnc(NC(=O)Cc2ccccc2)o1 | inactive: 3.97%
Cc1nn(CC(=O)NC2CCCC2)c(C)c1[N+](=O)[O-] | inconclusive: 47.4%

Structure (SMILES) | inhibition
OC(c1ccccc1)(c1ccccc1)c1nccc2ccccc12 | inconclusive: 35.3%
O=C1c2cccc3c(N4CCCCC4)ccc(c23)C(=O)N1c1cccc(O)c1 | active: 185%
Cc1cn([C@H]2C=C[C@@H](CO)O2)c(=O)[nH]c1=O | inconclusive: 40.1%
CC(C)C(=O)Nc1ccc(C(=O)N/N=C/C2CC3C=CC2C3)cc1 (configuration not stated) | active: 57.9%
CCCOc1ccc(NC(=O)CC2C(=O)OCC3CCCCN32)cc1 (configuration not stated) | inconclusive: 23.5%
CC(C)=CC(=O)OCC(=O)NC1CCCc2ccccc21 (configuration not stated) | inconclusive: 38.1%
CCCCn1ccnc1C(=O)c1cccc(S(=O)(=O)N2CC(C)CC(C)C2)c1 (configuration not stated) | inactive: -9.02%
CCOc1ncccc1C(=O)OCc1ccccc1 | active: 51.2%
CC1CCc2c(sc3ncn(CC(=O)N=Nc4c(O)[nH]c5ccccc45)c(=O)c23)C1 (configuration not stated) | inactive: 0.51%
CN1C(=O)CSc2ccc(NC(=O)NCc3ccccc3)cc21 | inconclusive: 33.2%
CN1CCN(CC(=O)NC2CCCCC2)CC1 | active: 92.5%
Cc1ccc(CN2CCN(c3ncccn3)CC2)c(C)c1 | inconclusive: 22.5%
Cc1nc(-c2ccc(NC(=O)C3CC3)cc2)cs1 | inactive: -3.04%
CCN(CC)CC(=O)Nc1c(C)cccc1C | inconclusive: 12.6%
CC(C)(C)c1ccc(C(=O)CCC(=O)OCC(=O)NCCc2ccc(S(N)(=O)=O)cc2)cc1 | inconclusive: 46.5%
CC(=O)N(/N=C/c1ccc(C)cc1)c1nc(CCl)cs1 | inconclusive: 38.3%
Cc1ccc(Cl)cc1NS(=O)(=O)c1ccc2c(c1)NC(=O)C(C)C(=O)N2 (configuration not stated) | inconclusive: 32.5%
O=C(N/N=C/c1c[nH]c2ccc(Br)cc12)c1ccn(Cc2ccc(Cl)cc2)n1 | inactive: -8%
O=S(=O)(Nc1nc2ccccc2nc1NCc1ccco1)c1ccc(Cl)cc1 | active: 62%
N#CCC(=O)Nc1ccc(C(=O)NNC(=S)NC2CCCCC2)cc1 | active: 124%
CCOC(=O)c1c(NC(=O)CSC(=S)N(C)C)sc(C)c1C | inactive: -1.4%
COc1ccc(CNC(=O)CCNS(=O)(=O)c2cc(Br)cnc2N)cc1 | inconclusive: 28.5%
COC(=O)C(C(=O)OC)C(c1ccccc1)C(C(=O)c1ccccc1)[N+](=O)[O-] (configuration not stated) | active: 53.3%

Structure (SMILES) | inhibition
COc1ccc(CCNC(=O)NC23CC4CC(CC(C4)C2)C3)cc1 | inconclusive: 30.8%
Cc1ccc(SCC(=O)N(Cc2nc(-c3ccccc3)no2)C(C)C)cc1 | inactive: -3.15%
O=c1cc(-c2cccc(F)c2)[nH]c2ccccc12 | inconclusive: 35.7%
CC(C)CC(=O)Nc1cc([N+](=O)[O-])ccc1Cl | inconclusive: 45.1%
Cc1cc(NC(=O)COC(=O)C2CCN(C(=O)c3ccc(Cl)cc3)CC2)no1 | inactive: 7%
CCOC(=O)C(CC)(CC)C(=O)/C=C/c1ccc(Br)cc1 | inactive: 7.65%
COC(=O)C1=C(C)N(Cc2ccco2)C(=O)/C1=C\c1ccc(N(C)C)cc1 | active: 71%
COc1ccc(CCNC2=NCCS2)cc1 | inconclusive: 45.4%
Cc1cccc(NC(=O)[C@H](Cc2ccccc2)NC(=O)[C@@H]2Cc3ccccc3CN2)c1 | inconclusive: 28.4%
CN(C)S(=O)(=O)c1cccc(-c2cn3cccnc3n2)c1 | inactive: -1.03%
S=C(S)N1CCCC1 | active: 74.9%
c1ccc(-c2n[nH]c3ccccc23)cc1 | inactive: -8.59%
CC(C)(C)n1ncc2c(=O)n(Cc3ccc(Cl)c(Cl)c3)cnc21 | inactive: -1.54%
Cc1cc(NC(=O)Cn2nnc3sc4c(c3c2=O)CCCC4)no1 | inconclusive: 41.8%
COC(=O)c1c(NC(=O)CN2CCC3(O)CCCCC3C2c2ccc(F)cc2)sc(C)c1C (configuration not stated) | inactive: 4.24%
O=C(O)CC1S/C(=N/N=C/C=C/c2ccccc2)NC1=O (configuration not stated) | inactive: 1.18% and inactive: -0.323%
Cc1ccc(S(=O)(=O)N2CCC[C@H]2C(=O)Oc2ccccc2)cc1 | inconclusive: 26.1%
COc1ccc(C(=O)OCC(=O)c2ccc(F)cc2)cc1OC | inconclusive: 45.2%
OCCO | active: 55.2%
Cc1cccc(C(=O)N2CCCCCC2)c1 | inconclusive: 35.3%
COc1cc(/C=N\NC(=O)c2ccc(-c3ccccc3)cc2)ccc1OCC(N)=O | inconclusive: 36.4%
CN(C)CCCn1c(N)c(C#N)c2nc(C#N)c(C#N)nc21 | active: 52.6%
COc1ccc2cc(C(=O)N3CCN(Cc4ccc5c(c4)OCO5)CC3)[nH]c2c1 | inconclusive: 11.2%
